We go through 3 molecules from paper PMC11673774.

By UniProt entry, the sequences of proteins in these tests, tags left out. Residues count along the entry.
UniProt O35516, residues 26-2473: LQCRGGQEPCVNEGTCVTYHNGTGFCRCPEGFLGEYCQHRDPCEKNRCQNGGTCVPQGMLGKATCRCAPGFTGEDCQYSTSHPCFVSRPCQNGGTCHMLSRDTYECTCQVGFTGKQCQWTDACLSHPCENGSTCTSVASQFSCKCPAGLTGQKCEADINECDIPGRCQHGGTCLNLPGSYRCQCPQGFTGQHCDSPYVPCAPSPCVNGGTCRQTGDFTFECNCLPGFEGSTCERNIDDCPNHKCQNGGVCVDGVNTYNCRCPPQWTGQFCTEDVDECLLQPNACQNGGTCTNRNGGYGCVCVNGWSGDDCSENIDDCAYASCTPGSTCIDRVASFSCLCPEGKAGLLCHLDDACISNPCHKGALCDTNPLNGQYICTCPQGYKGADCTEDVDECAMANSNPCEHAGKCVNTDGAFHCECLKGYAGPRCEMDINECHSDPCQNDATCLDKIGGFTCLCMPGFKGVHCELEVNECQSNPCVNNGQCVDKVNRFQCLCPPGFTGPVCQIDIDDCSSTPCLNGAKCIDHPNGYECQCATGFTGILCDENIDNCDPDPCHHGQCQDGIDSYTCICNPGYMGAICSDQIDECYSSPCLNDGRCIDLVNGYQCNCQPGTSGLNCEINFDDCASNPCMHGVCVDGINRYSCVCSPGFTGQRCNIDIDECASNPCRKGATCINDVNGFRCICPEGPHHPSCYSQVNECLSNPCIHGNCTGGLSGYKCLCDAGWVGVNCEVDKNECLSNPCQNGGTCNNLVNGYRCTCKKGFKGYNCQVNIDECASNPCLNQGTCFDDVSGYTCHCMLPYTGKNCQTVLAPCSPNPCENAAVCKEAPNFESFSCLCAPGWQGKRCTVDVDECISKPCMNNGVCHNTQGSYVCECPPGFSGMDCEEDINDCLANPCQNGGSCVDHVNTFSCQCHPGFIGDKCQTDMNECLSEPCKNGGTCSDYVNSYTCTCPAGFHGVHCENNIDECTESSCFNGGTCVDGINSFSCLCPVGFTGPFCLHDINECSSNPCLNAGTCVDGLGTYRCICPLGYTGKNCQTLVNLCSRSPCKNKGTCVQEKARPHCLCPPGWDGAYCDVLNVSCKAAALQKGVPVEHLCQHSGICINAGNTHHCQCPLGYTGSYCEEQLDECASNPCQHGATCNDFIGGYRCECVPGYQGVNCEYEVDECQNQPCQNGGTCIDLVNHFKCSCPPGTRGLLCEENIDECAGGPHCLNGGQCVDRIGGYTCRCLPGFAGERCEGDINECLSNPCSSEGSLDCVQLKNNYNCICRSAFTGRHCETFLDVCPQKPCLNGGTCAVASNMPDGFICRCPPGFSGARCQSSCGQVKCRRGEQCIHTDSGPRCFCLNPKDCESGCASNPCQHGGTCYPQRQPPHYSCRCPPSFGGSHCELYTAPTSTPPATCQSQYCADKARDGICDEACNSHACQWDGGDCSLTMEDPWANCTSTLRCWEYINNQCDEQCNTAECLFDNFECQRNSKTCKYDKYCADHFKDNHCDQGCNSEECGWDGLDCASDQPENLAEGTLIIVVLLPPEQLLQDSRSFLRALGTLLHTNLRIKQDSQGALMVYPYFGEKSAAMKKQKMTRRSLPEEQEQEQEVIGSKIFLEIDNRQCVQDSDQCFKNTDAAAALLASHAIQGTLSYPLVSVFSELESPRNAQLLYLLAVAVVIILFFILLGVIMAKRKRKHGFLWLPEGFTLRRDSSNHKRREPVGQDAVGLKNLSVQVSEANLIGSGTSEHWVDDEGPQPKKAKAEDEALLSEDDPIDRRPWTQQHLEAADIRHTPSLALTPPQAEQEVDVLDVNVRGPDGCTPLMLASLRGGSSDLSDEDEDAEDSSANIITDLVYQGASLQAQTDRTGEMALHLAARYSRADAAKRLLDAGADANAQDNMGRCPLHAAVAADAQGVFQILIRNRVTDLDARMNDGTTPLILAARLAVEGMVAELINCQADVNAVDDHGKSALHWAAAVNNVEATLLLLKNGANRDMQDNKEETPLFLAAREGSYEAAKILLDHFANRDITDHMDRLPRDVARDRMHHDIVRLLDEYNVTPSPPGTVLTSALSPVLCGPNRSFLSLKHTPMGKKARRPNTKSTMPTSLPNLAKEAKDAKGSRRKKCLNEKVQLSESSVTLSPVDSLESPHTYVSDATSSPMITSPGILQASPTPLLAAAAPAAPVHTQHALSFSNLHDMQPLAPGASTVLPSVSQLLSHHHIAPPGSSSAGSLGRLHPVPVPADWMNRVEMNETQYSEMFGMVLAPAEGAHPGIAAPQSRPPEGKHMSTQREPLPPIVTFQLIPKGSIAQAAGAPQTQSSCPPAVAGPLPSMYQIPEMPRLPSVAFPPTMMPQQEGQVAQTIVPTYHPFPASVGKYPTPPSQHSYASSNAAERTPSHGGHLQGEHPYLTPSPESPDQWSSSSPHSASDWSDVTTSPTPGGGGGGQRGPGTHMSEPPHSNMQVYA
UniProt Q01705, residues 19-2531: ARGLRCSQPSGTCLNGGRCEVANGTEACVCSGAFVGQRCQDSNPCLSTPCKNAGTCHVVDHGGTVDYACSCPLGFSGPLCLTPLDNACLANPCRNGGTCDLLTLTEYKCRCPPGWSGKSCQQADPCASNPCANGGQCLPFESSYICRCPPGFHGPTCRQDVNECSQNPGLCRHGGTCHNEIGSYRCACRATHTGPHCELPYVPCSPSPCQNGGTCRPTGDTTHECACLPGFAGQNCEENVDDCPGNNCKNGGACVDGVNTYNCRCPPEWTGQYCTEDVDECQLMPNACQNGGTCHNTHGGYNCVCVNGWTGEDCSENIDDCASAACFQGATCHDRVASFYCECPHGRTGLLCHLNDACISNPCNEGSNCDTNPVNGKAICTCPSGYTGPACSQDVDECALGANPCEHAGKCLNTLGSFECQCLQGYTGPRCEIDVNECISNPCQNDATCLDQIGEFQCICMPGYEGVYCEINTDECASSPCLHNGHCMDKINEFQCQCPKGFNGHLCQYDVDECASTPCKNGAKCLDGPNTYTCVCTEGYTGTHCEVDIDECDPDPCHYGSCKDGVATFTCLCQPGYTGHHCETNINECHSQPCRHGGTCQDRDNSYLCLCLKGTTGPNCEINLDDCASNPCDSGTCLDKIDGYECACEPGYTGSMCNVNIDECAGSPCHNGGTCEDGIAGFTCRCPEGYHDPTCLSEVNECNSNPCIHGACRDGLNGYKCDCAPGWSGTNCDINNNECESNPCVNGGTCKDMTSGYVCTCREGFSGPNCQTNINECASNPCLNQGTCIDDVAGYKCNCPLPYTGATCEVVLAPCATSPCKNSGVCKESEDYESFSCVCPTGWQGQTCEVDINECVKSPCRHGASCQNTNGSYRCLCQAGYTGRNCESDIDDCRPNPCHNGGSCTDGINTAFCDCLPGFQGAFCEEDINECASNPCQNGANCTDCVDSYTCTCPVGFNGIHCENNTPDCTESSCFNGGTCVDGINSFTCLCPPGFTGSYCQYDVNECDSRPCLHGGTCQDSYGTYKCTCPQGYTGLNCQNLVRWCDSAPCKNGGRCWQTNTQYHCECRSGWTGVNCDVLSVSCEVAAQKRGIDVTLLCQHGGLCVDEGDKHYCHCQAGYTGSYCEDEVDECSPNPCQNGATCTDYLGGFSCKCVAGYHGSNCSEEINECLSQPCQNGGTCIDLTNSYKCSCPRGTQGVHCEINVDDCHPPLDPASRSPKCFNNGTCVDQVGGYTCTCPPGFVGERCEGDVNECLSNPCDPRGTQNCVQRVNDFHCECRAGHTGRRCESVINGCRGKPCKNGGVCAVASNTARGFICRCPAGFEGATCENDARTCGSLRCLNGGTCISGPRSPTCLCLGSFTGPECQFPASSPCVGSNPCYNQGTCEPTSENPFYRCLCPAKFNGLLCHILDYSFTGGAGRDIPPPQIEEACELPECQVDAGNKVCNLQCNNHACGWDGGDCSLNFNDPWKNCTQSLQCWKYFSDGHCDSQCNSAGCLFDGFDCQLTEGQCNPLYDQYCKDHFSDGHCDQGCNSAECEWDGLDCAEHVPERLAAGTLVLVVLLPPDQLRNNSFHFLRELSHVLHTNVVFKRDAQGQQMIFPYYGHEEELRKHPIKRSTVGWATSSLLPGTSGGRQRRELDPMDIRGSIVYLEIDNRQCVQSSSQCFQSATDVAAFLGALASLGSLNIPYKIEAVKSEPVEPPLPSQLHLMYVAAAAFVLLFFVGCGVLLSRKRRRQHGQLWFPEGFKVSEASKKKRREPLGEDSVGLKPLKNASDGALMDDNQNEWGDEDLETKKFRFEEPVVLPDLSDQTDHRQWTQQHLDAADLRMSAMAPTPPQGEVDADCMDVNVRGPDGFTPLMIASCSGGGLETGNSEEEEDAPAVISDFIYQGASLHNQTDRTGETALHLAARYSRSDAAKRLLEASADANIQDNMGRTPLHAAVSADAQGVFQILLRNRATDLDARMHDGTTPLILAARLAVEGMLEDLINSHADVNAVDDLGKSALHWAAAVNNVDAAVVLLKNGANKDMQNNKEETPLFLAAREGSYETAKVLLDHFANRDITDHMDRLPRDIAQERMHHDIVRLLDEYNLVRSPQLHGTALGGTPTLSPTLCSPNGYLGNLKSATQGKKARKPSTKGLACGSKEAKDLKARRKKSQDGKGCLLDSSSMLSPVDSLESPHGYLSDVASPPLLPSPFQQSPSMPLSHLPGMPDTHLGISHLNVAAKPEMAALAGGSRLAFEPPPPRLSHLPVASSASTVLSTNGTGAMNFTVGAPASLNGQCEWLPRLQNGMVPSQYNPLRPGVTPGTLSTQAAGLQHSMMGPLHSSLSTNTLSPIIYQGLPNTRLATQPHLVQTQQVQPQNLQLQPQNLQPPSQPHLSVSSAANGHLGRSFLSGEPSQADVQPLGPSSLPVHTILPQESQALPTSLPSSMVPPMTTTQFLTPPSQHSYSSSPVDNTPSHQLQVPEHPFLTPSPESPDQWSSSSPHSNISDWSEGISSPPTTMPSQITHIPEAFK

These are yes or no findings as the source states them, for the method shown. In cells and extracts the contact can be indirect. Some results given as binding are weak or reduced against the parent protein; the word gives no strength.

Common to all, as to assay: co-IP; antibody (anti-PEAR1, anti-Notch1 or anti-Notch2) on magnetic beads, 2 h at 4 °C, then incubated with extracted total cellular protein of C2C12 cells for 2 h at 4 °C; Western blotting; rabbit IgG as negative control
On the technique in general: A western blot detects proteins with antibodies after separation by electrophoresis.

Assay [1] has as its target T1, Platelet Endothelial Aggregation Receptor 1 (PEAR1) (mouse (endogenous in C2C12)) (UniProt Q8VIK5).
T1 sequence: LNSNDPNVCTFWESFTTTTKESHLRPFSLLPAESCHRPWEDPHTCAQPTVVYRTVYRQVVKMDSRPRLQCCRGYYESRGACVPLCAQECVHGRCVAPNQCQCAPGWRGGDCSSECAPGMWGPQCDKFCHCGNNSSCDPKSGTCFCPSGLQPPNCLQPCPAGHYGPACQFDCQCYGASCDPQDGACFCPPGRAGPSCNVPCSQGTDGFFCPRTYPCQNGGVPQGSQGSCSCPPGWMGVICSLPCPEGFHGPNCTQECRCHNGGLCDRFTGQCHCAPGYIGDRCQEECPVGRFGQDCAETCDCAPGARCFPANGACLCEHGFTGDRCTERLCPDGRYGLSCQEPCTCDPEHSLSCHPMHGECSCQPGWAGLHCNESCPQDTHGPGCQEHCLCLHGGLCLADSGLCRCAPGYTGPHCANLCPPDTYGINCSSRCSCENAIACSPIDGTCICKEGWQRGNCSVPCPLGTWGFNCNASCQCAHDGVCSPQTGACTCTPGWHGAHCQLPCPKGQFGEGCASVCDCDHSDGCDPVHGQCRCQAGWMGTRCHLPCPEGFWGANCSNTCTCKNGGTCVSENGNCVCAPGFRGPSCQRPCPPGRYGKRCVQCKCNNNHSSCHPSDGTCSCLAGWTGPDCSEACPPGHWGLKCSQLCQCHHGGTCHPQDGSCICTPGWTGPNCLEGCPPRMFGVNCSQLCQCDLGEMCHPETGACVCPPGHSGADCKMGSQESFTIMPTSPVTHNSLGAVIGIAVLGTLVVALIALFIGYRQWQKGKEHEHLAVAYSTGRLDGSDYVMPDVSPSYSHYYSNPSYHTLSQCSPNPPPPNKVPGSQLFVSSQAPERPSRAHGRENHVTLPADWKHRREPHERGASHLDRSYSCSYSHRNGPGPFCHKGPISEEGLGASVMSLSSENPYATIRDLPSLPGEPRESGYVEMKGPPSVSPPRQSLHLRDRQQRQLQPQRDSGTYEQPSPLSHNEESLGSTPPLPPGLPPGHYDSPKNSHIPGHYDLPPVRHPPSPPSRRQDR

For assay [2], the target named is Notch2 (mouse (endogenous in C2C12)) (UniProt O35516).
The target in assay [3] is Notch1 (mouse (endogenous in C2C12)) (UniProt Q01705).

On to “Notch1 (from UniProt Q01705 19-2531) (receptor)”, for which the binding entry in assay [1] was “binds”.
The same measure, in the same setting: the value for “Notch2 (from UniProt O35516 26-2473) (receptor)” was “binds”.

B1: Platelet Endothelial Aggregation Receptor 1 (PEAR1) (protein, UniProt Q8VIK5 19-1034)
chain: T1 sequence
Take B1: the binding result in assay [2] and in assay [3] was “binds” each time.
